PMC12187018

T1: Flag-P2X7 (R) (UniProt Q99572)
T1 sequence: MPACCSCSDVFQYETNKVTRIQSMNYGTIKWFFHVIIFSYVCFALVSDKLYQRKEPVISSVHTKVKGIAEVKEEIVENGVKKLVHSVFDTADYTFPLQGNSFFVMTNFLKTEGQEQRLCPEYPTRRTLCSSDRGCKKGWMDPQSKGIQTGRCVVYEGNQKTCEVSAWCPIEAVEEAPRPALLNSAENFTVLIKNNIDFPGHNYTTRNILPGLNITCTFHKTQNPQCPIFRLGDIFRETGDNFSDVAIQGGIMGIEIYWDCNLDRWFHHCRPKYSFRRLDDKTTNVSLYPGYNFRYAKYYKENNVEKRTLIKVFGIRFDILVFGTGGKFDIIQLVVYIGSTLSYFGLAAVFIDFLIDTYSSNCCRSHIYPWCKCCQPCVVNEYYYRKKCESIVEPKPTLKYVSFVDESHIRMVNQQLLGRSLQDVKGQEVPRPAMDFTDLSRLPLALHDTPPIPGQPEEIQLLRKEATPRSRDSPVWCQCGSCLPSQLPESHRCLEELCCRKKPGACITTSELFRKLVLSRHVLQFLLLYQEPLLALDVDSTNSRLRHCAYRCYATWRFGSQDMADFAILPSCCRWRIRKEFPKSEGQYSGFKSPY


Experiments:
Flag-P2X7 (R) = molecular target: T1, Flag-P2X7 (R); assay: co-IP; 293T cells co-transfected with HA-Env (virulent or vaccine) and one Flag-tagged host protein; lysis in 1% Triton X-100, 50 mM Tris-HCl pH 7.4, 150 mM NaCl; anti-Flag or anti-HA magnetic beads overnight; also done with 50 μM KCl (S2 Fig B-C)
[1] = molecular target: EIAV Env of the virulent strain (EIAV_DLV34), in infected macrophages (EIAV, virulent strain EIAV_DLV34); assay: co-IP; immunoprecipitation with anti-Env antibodies from EIAV-infected equine macrophages; endogenous P2X7 (R), NLRP3 and NEK7 detected by blot

Row | Molecule | binding (Flag-P2X7 (R)) | binding [1]
1 | HA-Env of the virulent EIAV strain (virulent-Env) (EIAV, virulent strain EIAV_DLV34) | binds | –
2 | P2X7 (R), endogenous in equine macrophages (receptor, UniProt F6Q5L6 1-561) MPACCSWNDVFQYETNKVTRIQSMNYGTIKWICHLIVFSYVIFALVSDKRYQRKEPLISSVHTKVKGIAEVREEIIESGAKKVVQSVFDTADYTFPLQGNSFFVMTNFLKTEGQEQGLCPEYPTRRTLCSSDRGCKKGWMDPQSKGIQTGRCIVYKGNQKTCEVSAWCPIEAVEEAPRPALLNSAENFTVLIKNNIDFPGHNYTTRNFLPGLNITCTFHKTQNPQCPIFRLGDIFRETGDHFSDVAIQGGIMGIEIYWDCNLDRWFHHCRPKYSFRRLDDKTASESSYPGYNFRYAKYYKENNVEKRTLIKVFGIRFDILVFGTGGKFDIIQLIVFVGSTLSYFGLATLFIDFLINTYSSKFCRSSIYPCCKYCEPCSVNEYYYRKKCESIVEPKPRPSMDFTDLSRLPLSLQDPHVTPGQPEDIQLLSEEVTPRHKDSPHWCQCGNCLPSQLPESHRCLEELCCRKKMGACITTSEPFRKLVLSRRVLQFLLLYREPLLVLDADSTNSQLRHCAYRCYATWRFGSQDLADFAILPSCCRWRIRREFPRSEGQYSGFKSPY | – | binds

No constants are given. Whether binding was seen depends on the method and setting. Binding seen in cells or lysates may run through a third protein. Binding calls can cover weak binding; strength is not graded here. For some assays here: Where a sequence is shown, tags or fusion partners need not be part of it.
